Reference: article PMC7948815
These are yes or no findings as the source states them, for the method shown.

The chains behind the UniProt entries cited, without tags or fusion partners. Where a name states a change or a piece, a line headed by the entry shows the natural chain unless it says otherwise. A line that says so, or that is headed by a name, gives the form on record, which may keep a tag or linker.
human PCIF1 (phosphorylated RNA polymerase II CTD interacting factor 1), full-length (Q9H4Z3, form named): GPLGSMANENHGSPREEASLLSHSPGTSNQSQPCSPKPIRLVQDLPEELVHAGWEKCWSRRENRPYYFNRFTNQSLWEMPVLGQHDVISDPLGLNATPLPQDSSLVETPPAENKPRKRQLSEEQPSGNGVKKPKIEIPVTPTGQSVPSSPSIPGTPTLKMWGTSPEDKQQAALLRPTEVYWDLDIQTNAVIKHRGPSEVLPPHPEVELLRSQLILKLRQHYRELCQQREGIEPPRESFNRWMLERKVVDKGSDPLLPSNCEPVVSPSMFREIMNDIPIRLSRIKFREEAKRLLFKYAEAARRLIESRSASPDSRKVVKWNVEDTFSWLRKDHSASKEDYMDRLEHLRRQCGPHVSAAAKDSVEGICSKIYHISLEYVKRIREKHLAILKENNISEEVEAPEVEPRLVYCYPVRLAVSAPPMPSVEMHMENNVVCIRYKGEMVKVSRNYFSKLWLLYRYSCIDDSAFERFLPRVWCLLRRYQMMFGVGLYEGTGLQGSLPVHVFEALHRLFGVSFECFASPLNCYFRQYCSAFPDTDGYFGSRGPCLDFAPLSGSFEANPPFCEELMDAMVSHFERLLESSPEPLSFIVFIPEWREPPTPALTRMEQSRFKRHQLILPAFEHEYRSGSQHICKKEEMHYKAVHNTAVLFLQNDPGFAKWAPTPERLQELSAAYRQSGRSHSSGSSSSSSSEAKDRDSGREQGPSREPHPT

What was measured:
[1] = target: human PCIF1 (phosphorylated RNA polymerase II CTD interacting factor 1), full-length (human) (UniProt Q9H4Z3); assay: SEC-MALS; Shodex KW803 column; PCIF1 at 4 mg/ml in 20 mM Tris-HCl pH 7.5, 150 mM NaCl, 0.1% β-mercaptoethanol; 18-angle DAWN HELEOS II detector; both purified
[2] = target: human PCIF1 (phosphorylated RNA polymerase II CTD interacting factor 1), full-length (human) (UniProt Q9H4Z3); assay: SEC-SAXS; same SEC fractions as for MALS; PCIF1 at 4 mg/ml in 20 mM Tris-HCl pH 7.5, 150 mM NaCl, 0.1% β-mercaptoethanol; 20 °C; ALS Beamline 12.3.1; both purified
[3] = target: human PCIF1 (phosphorylated RNA polymerase II CTD interacting factor 1), full-length (human) (UniProt Q9H4Z3); assay: SEC; Superdex 200 in 20 mM Tris-HCl pH 8.0, 150 mM NaCl, 5% glycerol, 0.5 mM TCEP; 4 °C; apparent molecular weight; both purified

- binding [1]: no binding (tested: 4 mg/ml)
- binding [2]: no binding (tested: 4 mg/ml)
- binding [3]: no binding
Substance: human PCIF1 (phosphorylated RNA polymerase II CTD interacting factor 1), full-length (from UniProt Q9H4Z3 1-704) (enzyme)
